Here are results for one compound from publication PMC8065335, “An integrative drug repositioning framework discovered a potential therapeutic agent targeting COVID-19” (Signal Transduction and Targeted Therapy, 2021).

In this assay the test system is SARS-CoV-2. Briefly: in vitro anti-SARS-CoV-2 virus infection assay in Vero E6 cells, viral yield in supernatant by qRT-PCR. The assay is classed as cell-based. The conditions noted are these: Severe acute respiratory syndrome coronavirus 2, Vero C1008, read-out: % Inhibition of SARS-CoV-2 replication.

By inhibition is commonly meant the change of the read-out against control, counted positive when it falls. Take `CCS(=O)(=O)N1CC(CC#N)(n2cc(-c3ncnc4[nH]ccc34)cn2)C1` [Baricitinib]: the inhibition at 3.2 µM was -6.63%.
